Reference: PubChem BioAssay AID2551 (National Center for Advancing Translational Sciences (NCATS), 2010)
In all, about 310,000 compounds went through this assay and about 17,000 (5.5%) were called active. Inconclusive means that the source gave no clear call. Such entries were picked first, then a sample of the others. Calls follow the shape of the dose curve; as a rule, active = well fitted inhibition curve with a large enough effect; inconclusive = small, poorly fitted or top-dose-only effect, or effect the other way; inactive = no such curve, though single readings can be large or run the other way. Potencies beside an inconclusive call are fits to weak or partial responses and may not hold up.

By UniProt entry, the sequences of proteins in these tests, tags left out. Where a name states a change or a piece, a line headed by the entry shows the natural chain unless it says otherwise.
UniProt P51450: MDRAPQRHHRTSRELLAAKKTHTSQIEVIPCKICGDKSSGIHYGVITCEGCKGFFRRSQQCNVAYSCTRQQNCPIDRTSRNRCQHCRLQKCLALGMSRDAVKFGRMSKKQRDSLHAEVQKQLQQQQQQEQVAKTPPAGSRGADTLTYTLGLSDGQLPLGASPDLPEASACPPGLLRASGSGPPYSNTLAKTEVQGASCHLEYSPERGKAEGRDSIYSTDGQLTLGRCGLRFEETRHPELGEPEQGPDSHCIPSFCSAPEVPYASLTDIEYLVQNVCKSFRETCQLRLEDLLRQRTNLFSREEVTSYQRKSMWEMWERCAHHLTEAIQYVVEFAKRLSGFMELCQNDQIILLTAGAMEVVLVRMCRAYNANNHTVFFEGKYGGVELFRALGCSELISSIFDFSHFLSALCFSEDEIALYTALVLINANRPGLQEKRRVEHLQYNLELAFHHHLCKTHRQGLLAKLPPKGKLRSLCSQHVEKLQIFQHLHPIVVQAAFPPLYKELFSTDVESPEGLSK

biological target: Nuclear receptor ROR-gamma (Mus musculus) (UniProt P51450); experiment: qHTS for inhibitors of ROR gamma transcriptional activity; conditions: Drosophila S2 Gal4-RORgamma UAS-luciferase reporter, 20 h; activity change, negative = inhibition: at 53.6 µM (top of the series); also: nearly all actives have a fitted effect of over 60% in size
Procedure, shortened: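 Read-out: Photinus luciferase luminescence; inhibitors lower reporter signal. Insect Schneider cells with Gal4-ROR gamma fusion under metallothionein promoter, UAS reporter; 700 uM final copper sulfate induction, 20 hr, ambient temperature.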
% is scaled to controls: 0 for no effect and ±100 for the full control effect; potency is read from the fitted curve at half-maximal effect.

| SMILES | Potency | activity change, negative = inhibition |
| --- | --- | --- |
| CN(C)CCN(C(=O)c1ccc(N2C(=O)CCC2=O)cc1)c1nc2cc3c(cc2s1)OCO3 | inactive | – |
| O=C(CCCCCBr)N1CCC(CC2CC(c3ccc(Cl)cc3)=NO2)(C(=O)NCC2CCCCC2)CC1 (configuration not stated) | inconclusive: 14.1 µM [activator, single point] | – |
| O=C(CSc1nnc(NC(=O)c2ccc3c(c2)OCO3)s1)NCc1ccco1 | active: 12.6 µM | – |
| Cn1c(=O)c2c(ncn2CC(=O)OCC(=O)Nc2ccc(Cl)cc2Cl)n(C)c1=O | inconclusive: 7.08 µM [activator, partial curve, poor fit] | – |
| C=CCn1c(-c2ccco2)n[nH]c1=S | active: 10 µM | – |
| O=C(NCC(=O)N1CCN(c2ccccc2)CC1)c1ccccc1 | inconclusive: 12.6 µM [activator, single point] | – |
| C=CCn1c(-c2cc3cccc(OC)c3o2)n[nH]c1=S | active: 3.55 µM | – |
| CC(=O)Oc1ccccc1C(=O)N(C1CCCCC1)C1CCCCC1 | inconclusive: 8.91 µM [inhibitor, partial curve] | – |
| O=c1c(-c2ccc(F)cc2)nc2cnc(Oc3ccccc3)nc2n1Cc1cccs1 | inactive | – |
| COc1ccc(C2CCCN2C(=S)Nc2ccc(C)c(C)c2)cc1OC (configuration not stated) | active: 12.6 µM | – |
| N#CCCn1nc(-c2ccccc2)cc1Nc1ccccc1NC(=O)c1cccs1 | inconclusive: 31.6 µM [activator, single point] | – |
| COc1ccccc1N1CCN(C(CNS(=O)(=O)c2cc(F)ccc2F)c2cccnc2)CC1 (configuration not stated) | inconclusive: 12.6 µM [activator, partial curve] | – |
| O=S(=O)(c1ccc(-c2ccon2)s1)N1CCN(CCN2CCOCC2)CC1 | inconclusive: 0.1 µM [activator, full curve, poor fit] | – |
| O=C(NCc1ccco1)C(C(=O)c1ccccc1)n1ccccc1=O (configuration not stated) | – | inactive: -2.32% [at 10 µM] |
| Cc1cc(-c2n[nH]c(=S)n2/N=C/C(Cl)=C/c2ccccc2)n[nH]1 | active: 8.91 µM | – |
| CCOC(=O)CN1NC2(CCC(C)CC2)NC1=S (configuration not stated) | inconclusive: 7.94 µM [inhibitor, partial curve, poor fit] | – |
| CCOC(=O)C1(CC2CCCCO2)CCN(C(=O)NCc2ccccc2)CC1 (configuration not stated) | inactive | – |
| CCCC(=O)N/N=C1\CS(=O)(=O)N(C)c2ccsc21 | inconclusive: 17.8 µM [inhibitor, single point] | – |
| C=CCN(C)NC(=S)Nc1ccccc1 | active: 5.01 µM | – |
| C=CCNC(=O)COc1ccc(Br)cc1Cl | inconclusive: 1.78 µM [activator, partial curve, poor fit] | – |
| Cc1cccc(Cn2cnc3c(nnn3Cc3ccccc3F)c2=O)c1 | inconclusive: 7.08 µM [activator, partial curve] | – |
| COc1cc(/C=N/NC(=O)c2cc(C)oc2C)cc(OC)c1OC | inconclusive: 25.1 µM [inhibitor, single point] | – |
| CC1CCN(C(=O)CCc2nnc(-c3ccccc3)o2)CC1 | inactive | – |
| COc1ccc(C/C(C)=N/NC(=O)c2cc(C)oc2C)cc1 | inconclusive: 14.1 µM [inhibitor, partial curve] | – |
| CCCCCCOc1ccc(NC(=O)CC2C(=O)N(CC)C(=S)N2Cc2ccco2)cc1 (configuration not stated) | inconclusive: 2.51 µM [activator, partial curve] | – |
| Cc1ccc(Cn2ccsc2=NC(=O)CCl)cc1 | inconclusive: 22.4 µM [inhibitor, single point] | – |

| SMILES | Potency | activity change, negative = inhibition |
| --- | --- | --- |
| Nc1nc(NCc2ccccc2)nc(-c2ccccc2)n1 | inconclusive: 14.1 µM [activator, single point] | – |
| C/C(=N\NC(=S)Nc1ccc(C)cc1)c1cccc(N)c1 | active: 2.82 µM | – |
| CC(=O)Nc1cccc(N=NN2CCOCC2)c1 | inactive | – |
| Cc1sc2nc(CSCC(=O)N(C)c3ccccc3)[nH]c(=O)c2c1C | inconclusive: 35.5 µM [activator, single point] | – |
| Cc1ccccc1NC(=O)c1c2c(nc3ccccc13)CCC2 | inactive | – |
| CCOC(=O)c1c(NC(=O)CN2C(=O)NC(C)(c3ccc(Cl)cc3)C2=O)sc(C(=O)NC)c1C (configuration not stated) | inactive | – |
| O=c1c2ccccc2nc2n1C(CSCc1ccc(Cl)cc1)CS2 (configuration not stated) | inconclusive: 3.98 µM [activator, full curve] | – |
| O=C(CNc1cccc2ccccc12)N/N=C/C=C/c1ccco1 | active: 12.6 µM | – |
| Cc1ccc(-c2noc(C3CCCN(C(=O)c4ccc(F)cc4F)C3)n2)cc1 (configuration not stated) | inconclusive: 35.5 µM [activator, single point] | – |
| COc1cccc(-c2nc(CS(=O)(=O)CC(=O)NCCc3cc(OC)ccc3OC)c(C)o2)c1 | inactive | – |
| O=C(CCN1Cc2ccccc2C1)c1ccc2c(c1)OCCO2 | active: 12.6 µM | – |
| O=C(CSc1nnc(C2COc3ccccc3O2)o1)NC1CCCCC1 (configuration not stated) | inactive | – |
| CCNC(=S)NNc1nc(N2CCCCC2)nc(N2CCOCC2)n1 | active: 14.1 µM | – |
| Nn1c(CSc2ccccn2)nc2ccccc2c1=O | inactive | – |
| CCOc1ccccc1NC(=O)CSc1nnc(-c2ccco2)n1Cc1ccco1 | inconclusive: 20 µM [activator, single point] | – |
| CC1Cc2ccccc2N1C(=O)Cn1c(=O)oc2cc(S(=O)(=O)NC3CCCC3)ccc21 (configuration not stated) | inactive | – |
| N#CCCN1CCN(C2=NC(=O)/C(=C\c3cccs3)S2)CC1 | inactive | – |
| CC(=O)Nc1sc2c(c1-c1nc3ccccc3s1)CCN(C(C)C)C2 | active: 8.91 µM | – |
| O=S(=O)(Nc1nc2ccccc2nc1Cl)c1ccccc1 | inconclusive: 14.1 µM [activator, partial curve, poor fit] | – |
| CC(=O)NC(Cc1ccc(F)cc1)C(=O)NC1CCN(C(=O)NCc2ccccc2)CC1 (configuration not stated) | inactive | – |
| O=C(Nc1ccccc1[N+](=O)[O-])C1COc2ccccc2O1 (configuration not stated) | inactive | – |
| O=[N+]([O-])c1cc(/C=N/N/C(=N/c2ccccn2)c2ccccn2)ccc1O | active: 1.41 µM | – |
| COc1ccccc1OCc1nc2ccccc2s1 | inconclusive: 17.8 µM [inhibitor, single point] | – |
| Nn1c(COc2cccc(Cl)c2)nc2ccccc2c1=O | inconclusive: 5.62 µM [activator, partial curve] | – |
| Cc1c(NS(=O)(=O)c2ccc3c(c2)OCCO3)cccc1-c1nc2cccnc2s1 | inconclusive: 5.62 µM [inhibitor, single point] | – |
| N#Cc1cccc(NC(=O)COC(=O)c2ccccc2Sc2ccccc2C#N)c1 | inconclusive: 20 µM [activator, single point] | – |

| SMILES | Potency | activity change, negative = inhibition |
| --- | --- | --- |
| O=C(COc1ccccc1)Nc1nc2ccccc2[nH]1 | inconclusive: 0.282 µM [activator, single point] | – |
| COc1ccc(-c2nc(-c3cccs3)c(-c3cccs3)[nH]2)cc1O | inactive | – |
| CCOc1ccccc1OCCCC(=O)Nc1nc2ccccc2[nH]1 | inconclusive: 0.398 µM [inhibitor, single point] | – |
| O=S(=O)(Nc1ccc(N2CCCCC2)cc1)c1cccs1 | inconclusive: 22.4 µM [activator, single point] | – |
| C=CCn1c(-c2cccc3ccccc23)n[nH]c1=S | active: 3.55 µM | – |
| CCCNC(=O)c1cc(-c2ccc3c(c2)OCO3)on1 | inconclusive: 6.31 µM [inhibitor, partial curve] | – |
| CNS(=O)(=O)c1cccc(C(=O)OCC(=O)NC(C)CCc2ccccc2)c1 (configuration not stated) | inactive | – |
| Cc1cc(-c2csc(N)n2)c(C)n1C | inactive | – |
| CCOc1ccc(-n2c(C)c(C(=O)O)c3cc(OC)ccc32)cc1 | inactive | – |
| COCCC(=O)Nc1c(-c2ccccc2)c2cc(Br)ccc2[nH]c1=O | inactive | – |
| Cc1ccccc1Cn1c(C)nc2ccccc21 | inconclusive: 10 µM [inhibitor, partial curve, poor fit] | – |
| COc1cc(NC(=O)c2cccc(COCC(F)(F)C(F)F)c2)cc(OC)c1OC | inconclusive: 35.5 µM [activator, single point] | – |
| Cc1cc(C(=O)CN2C(=O)c3cccc(N)c3C2=O)c(C)n1Cc1cccs1 | inconclusive: 6.31 µM [activator, single point] | – |
| O=C(CCl)Nc1cccc(Oc2ccccc2)c1 | active: 10 µM | – |
| O=C(N/N=C/c1cc(Br)cs1)C(O)c1ccccc1 (configuration not stated) | inconclusive: 12.6 µM [inhibitor, single point] | – |
| Cc1ccc(/C=C/C(=O)OCC(=O)Nc2ccccc2Sc2ccccc2)cc1 | inconclusive: 35.5 µM [activator, single point] | – |
| Cc1ccc(-n2ncc(N(C)C)c(Cl)c2=O)cc1 | active: 11.2 µM | – |
| O=C(OCC(=O)N1CCCC1=O)c1nc(Cl)c(Cl)c(Cl)c1Cl | inconclusive: 12.6 µM [inhibitor, partial curve] | – |
| O=C(Cn1c(=O)n(Cc2ccc3c(c2)OCO3)c(=O)c2ccccc21)N1CCCc2ccccc21 | inconclusive: 1.58 µM [inhibitor, partial curve, poor fit] | – |
| CCOc1ccc(C(=O)COC(=O)c2cccc(-n3cnnn3)c2)cc1 | inconclusive: 15.8 µM [activator, partial curve] | – |
| CC(/C=N/Nc1nc2ccccc2[nH]1)=C\c1ccccc1 | active: 6.31 µM | – |
| CC(CC(=O)O)CC(=O)Nc1ccc(Br)cc1 (configuration not stated) | inactive | – |
| CC(C)c1ccc(NC(=S)Nc2ccc3cn[nH]c3c2)cc1 | inconclusive: 15.8 µM [inhibitor, single point] | – |
| COc1ccc(-c2nnc(Nc3ccc(OC)c(C(=O)N4CCCCC4)c3)c3ccccc23)cc1 | inconclusive: 12.6 µM [activator, partial curve] | – |
| NC1=NC(=O)/C(=C/c2ccc(Cl)cc2Cl)S1 | inactive | – |

Another view of three compounds above.
SMILES	Potency	activity change, negative = inhibition
O=C(OCC(=O)N1CCCC1=O)c1nc(Cl)c(Cl)c(Cl)c1Cl	inconclusive: 12.6 µM [inhibitor, partial curve]	–
CC(C)c1ccc(NC(=S)Nc2ccc3cn[nH]c3c2)cc1	inconclusive: 15.8 µM [inhibitor, single point]	–
NC1=NC(=O)/C(=C/c2ccc(Cl)cc2Cl)S1	inactive	–
